Measurements from article doi:10.1101/2025.06.20.659510.

Experiments:
TBX5 (mouse) = target: T1, TBX5 (mouse) (UniProt P70326); experiment: two-hybrid; liquid yeast two-hybrid in S. cerevisiae; pGADT7 Gal4 activation domain-Nkx2-5 (WT or variant) co-transformed with pGBKT7 Gal4 DNA-binding domain-TF (NKX2-5, GATA4, TBX5, TBX20b or HAND1); high stringency liquid medium (-Ade/-His/-Leu/Trp), 30°C, FDG fluorescence at two time-points, T2 normalised to T1; N188K with HAND1 followed out to day 5
T1 sequence: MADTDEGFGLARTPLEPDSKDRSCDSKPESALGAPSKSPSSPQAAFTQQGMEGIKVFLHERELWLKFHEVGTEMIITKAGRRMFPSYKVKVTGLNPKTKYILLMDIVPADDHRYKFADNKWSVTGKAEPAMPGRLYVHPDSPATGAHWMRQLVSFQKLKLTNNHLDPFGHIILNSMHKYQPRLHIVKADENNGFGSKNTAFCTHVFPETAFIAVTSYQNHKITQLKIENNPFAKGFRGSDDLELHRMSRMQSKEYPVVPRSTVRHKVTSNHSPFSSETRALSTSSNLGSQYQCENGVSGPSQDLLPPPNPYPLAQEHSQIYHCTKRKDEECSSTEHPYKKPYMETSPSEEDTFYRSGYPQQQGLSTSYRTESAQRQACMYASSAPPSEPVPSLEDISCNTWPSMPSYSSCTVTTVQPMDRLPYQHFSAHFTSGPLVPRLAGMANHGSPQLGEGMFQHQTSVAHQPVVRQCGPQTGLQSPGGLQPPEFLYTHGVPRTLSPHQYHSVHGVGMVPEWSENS

HAND1 (mouse) = target: T2, HAND1 (mouse) (UniProt Q64279); experiment: as above
T2 sequence: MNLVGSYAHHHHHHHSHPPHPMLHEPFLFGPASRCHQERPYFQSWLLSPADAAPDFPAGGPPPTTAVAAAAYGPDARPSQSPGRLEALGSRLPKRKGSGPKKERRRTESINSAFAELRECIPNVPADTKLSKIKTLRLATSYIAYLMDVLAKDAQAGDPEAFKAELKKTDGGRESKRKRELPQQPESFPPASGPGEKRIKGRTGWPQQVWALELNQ

For NKX2-5 N188K (mouse), the binding (TBX5 (mouse)) was “binds weakly” and the binding (HAND1 (mouse)) was “binds”.

For “NKX2-5 Y259ter (mouse) (domain or fragment)”, the binding (TBX5 (mouse)) was “binds”.

No constants are given. Whether binding was seen depends on the method and setting. Binding calls can cover weak binding; strength is not graded here.
